The list shows a part of the results.
B1: il10ra_site1_normal_mot_HHH_b2_07144_000000289_0001_1_18_H_._HHH_b2_04284_0001_0000200013_0000001_1 (protein)
chain: SSSSSENHRAYELSREAAELLRQGNEEEAREVLEEVKEIAEEANNPILEFAARAIEKAVNSSSSS
B2: il10ra_site1_sap_19_mot_HHH_b2_01310_000000089_0001_41_55_H_._HHH_b2_02509_af2_0001_0000100001_0000001_0_0001_af2pred_0001 (protein)
chain: SSSSDEEYEEEVRELLEEAKHIEDPKERAYVLIRAYALAVKARDPELEELVKKVARELIGSSSSS
B3: il10ra_site1_sap_11_mot_8f2fda87c81871a3aab3e6ec2ca46b51_0001_000000224_0001_1_15_H_._8fcd63acc1b0ddff2aacf4df2caf1c72_0001_1_af2_0001_0000300020_0000001_0_0001 … (protein)
chain: SSSSSSEKKVEAEALIFFARYASNEEAARIALELAEEIAEELNDPELEELIEEVEKKLRSSSSSS
B4: il10ra_site1_normal_mot_8756ee2cf497b5429c717dfc0c0bcfd6_0001_000000186_0001_1_13_H_._HHH_b1_06988_0001_0000100013_0000001_1_af2pred_0001 (protein)
chain: SSSSSEEREELLKLSREVIELKQNGNPEEARELVEEAIRLAEELGNLNILAILRFLEEILSSSSS
B5: il10ra_site1_sap_20_mot_HHH_b2_00943_af2_000000149_0001_1_17_H_._HHH_b1_08116_af2_0001_0000300005_0000001_0_0001 (protein)
chain: SSSSSQEWQELAEEAKEVAEEVGDEMAEELIKAIKRLVEQGILDEEMASASLRLLIERLRSSSSS
B6: il10ra_site1_normal_mot_HHH_b2_02933_000000199_0001_1_19_H_._HHH_b2_00234_af2_0001_0000200006_0000001_0_af2pred_0001 (protein)
chain: SSSSSSSEAEEALKLLREALKIDDPEEFEEVIEEARRLAEEANNTILRFAIEFVAKEFNSSSSSS
B7: il10ra_site1_sap_16_mot_HHH_b2_05343_000000235_0001_19_35_H_._HHH_b1_02070_af2_0001_0000300019_0000002_1_0001 (protein)
chain: SSSSDEEKEELEELLEEIRRLLEEGNPEEASRLLIEVAELAAELGDEEALRKVRELIQEVFSSSS
B8: il10ra_site1_sap_31_mot_HHH_b2_04274_000000146_0001_1_19_H_._HHH_b2_07522_af2_0001_0000400034_0000001_0_0001_af2pred_0001 (protein)
chain: SSSSSREEEALERLLRAARELYEQGDPELARLALKIAARLAEALGNEELLEELRQALEELSSSSS
B9: il10ra_site1_normal_mot_HHH_b2_07784_af2_000000103_0001_19_36_H_._HHH_b2_07681_af2_0001_0000500032_0000001_0 (protein)
chain: SSSSDEEYEEVKKLIERIVELIRNGNPEEAQELLERLRELAEELNTPALEFVVRLLERAINSSSS
B10: il10ra_site1_normal_mot_HHH_b2_07145_000000158_0001_24_40_H_._HHH_b1_08095_0001_0000300042_0000001_0 (protein)
chain: SSSSEEAFELIRRLIEEVSELLREGNREEAEKVIEEAEEIAEKYNNQALRFSVEHLLRLVRSSSS
B11: il10ra_site1_sap_16_mot_HHH_b2_02497_000000220_0001_1_20_H_._HHH_b1_07197_0001_0000500045_0000001_0_0001 (protein)
chain: SSSSDEEEAEEVFERYREELEEVAKKDAQKAFEALEEAIKLLLELGDDEAAHRIARFFVRLSSSS
B12: il10ra_site1_sap_26_mot_HHH_b2_02053_af2_000000006_0001_3_19_H_._HHH_b1_08316_0001_0000600031_0000001_0_0001 (protein)
chain: SSSSSDEEEHEEVEELLEKAEKIEDPEEVMKLLLRALHIAIQINDPEALQAVWRVVHKLASSSSS
B13: il10ra_site1_normal_mot_HHH_b1_04514_000000156_0001_1_18_H_._HHH_b1_03241_0001_0000200016_0000001_0 (protein)
chain: SSSSYEEVKELIERIIQLAREGNPEEAEEVLRELERLAEELNNPAVRFVVRLLEEVIENTSSSSS
B14: il10ra_site1_normal_mot_HHH_b2_04013_af2_000000040_0001_22_39_H_._HHH_b2_07593_0001_0000500012_0000001_0 (protein)
chain: SSSSDAEEEVRRLLEQVRELLEEGDAEKAFRLLREAIEVAAQSRDPEAEKLVRELLEELFRSSSS
B15: il10ra_site1_sap_24_mot_2c1a291787c6f40772924d4e9068d803_0001_af2_000000187_0001_34_48_H_._HHH_b2_01792_0001_0000100012_0000001_0_0001_af2pred_0001 (protein)
chain: SSSSDERAVKFLIEAAKHLEELGNPELAERALRLALLAAKWANNPELEEEVQELLEELRGSSSSS
B16: il10ra_site1_sap_16_mot_HHH_b1_06914_000000280_0001_1_18_H_._HHH_b1_06848_0001_0000100006_0000001_0_0001_af2pred_dldesign_0_af2pred (protein)
chain: SSSSSDLVATLKRHIANAKELYERGYPEEAKRALEYALAEARALGLEELEAEIEKLLEELSSSSS
B17: il10ra_site1_normal_mot_HHH_b1_05056_000000217_0001_1_20_H_._HHH_b2_07648_af2_0001_0000800026_0000001_0 (protein)
chain: SSSSSEVEEEVRKILEEAEELAEEGDPRKVARVLQEALRVALENSDQEALRLVWKVVKELTSSSS
B18: il10ra_site1_normal_mot_HHH_b2_03434_000000017_0001_1_19_H_._HHH_b1_03692_0001_0000100001_0000001_0 (protein)
chain: SSSSDEAYELVREAIEEVSELEREGNEEEARELARELIELLEELGNLNMLANAEHLLRLLESSSS
B19: il10ra_site1_normal_mot_HHH_b2_08186_000000021_0001_43_56_H_._HHH_b2_06107_0001_0000300018_0000001_0 (protein)
chain: SSSSSSSDAEEEVEELLEEAKHVDREEAMRLAIEALELAYRSRNPELLQLIWRVLKELSSSSSSS

These binders were tested against il10ra, Q13651 (assay: yeast display titration).

Binder	apparent Kd
B1	inactive: no binding seen
B2	inactive: no binding seen
B3	inactive: no binding seen
B4	inactive: no binding seen
B5	inactive: no binding seen
B6	inactive: no binding seen
B7	inactive: no binding seen
B8	inactive: no binding seen
B9	inactive: no binding seen
B10	inactive: no binding seen
B11	inactive: no binding seen
B12	inactive: no binding seen
B13	inactive: no binding seen
B14	inactive: no binding seen
B15	inactive: no binding seen
B16	inactive: no binding seen
B17	inactive: no binding seen
B18	inactive: no binding seen
B19	inactive: no binding seen

Laid out differently: entries from further up

| Binder | apparent Kd |
| --- | --- |
| B8 | inactive: no binding seen |
| B9 | inactive: no binding seen |

From PMC10163288
